Laboratory results: article doi:10.1101/2025.02.25.640118 (bioRxiv, 2025)
Positions count from the first letter of the chain named. These are yes or no findings as the source states them, for the method shown. For some of these results: In cells and extracts the contact can be indirect. For some of these results: Sequences can lack the tags named with a protein.

Columns and labels:
[1] = target: T1, MsyB (Escherichia coli protein MsyB) (E. coli) (UniProt P25738); test: NMR titration
T1 sequence: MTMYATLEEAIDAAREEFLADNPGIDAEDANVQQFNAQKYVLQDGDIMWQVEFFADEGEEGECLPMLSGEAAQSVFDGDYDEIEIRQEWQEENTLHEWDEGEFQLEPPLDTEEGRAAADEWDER

[2] = target: T2, MsyB with Q104 L105 mutated to AA (E. coli) (UniProt P25738); test: NMR titration
T2 sequence: T1 sequence with Q104A, L105A

MsyB^1-103 (E. coli) = target: T3, MsyB^1-103 (E. coli) (UniProt P25738); test: NMR titration
T3 sequence: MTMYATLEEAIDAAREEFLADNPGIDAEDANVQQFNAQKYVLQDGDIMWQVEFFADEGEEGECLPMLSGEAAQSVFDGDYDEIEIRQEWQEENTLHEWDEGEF

[3] = target: T4, MsyB-His (MsyB with a C-terminal polyhistidine tag, SUMO removed) (E. coli) (UniProt P25738); test: pull-down
T4 sequence: T1 sequence

With “clamp^M362A, P363A (from UniProt P0A988 1-366)” the binding [1] was “no binding”.

“β-clamp (β subunit of DNA polymerase) (from UniProt P0A988 1-366)” was tested, and the binding [2] was “no binding” and the binding (MsyB^1-103 (E. coli)) was “no binding”.

B1: Glutamine--fructose-6-phosphate aminotransferase (GlmS) (enzyme, UniProt P17169 1-609)
chain: MCGIVGAIAQRDVAEILLEGLRRLEYRGYDSAGLAVVDAEGHMTRLRRLGKVQMLAQAAEEHPLHGGTGIAHTRWATHGEPSEVNAHPHVSEHIVVVHNGIIENHEPLREELKARGYTFVSETDTEVIAHLVNWELKQGGTLREAVLRAIPQLRGAYGTVIMDSRHPDTLLAARSGSPLVIGLGMGENFIASDQLALLPVTRRFIFLEEGDIAEITRRSVNIFDKTGAEVKRQDIESNLQYDAGDKGIYRHYMQKEIYEQPNAIKNTLTGRISHGQVDLSELGPNADELLSKVEHIQILACGTSYNSGMVSRYWFESLAGIPCDVEIASEFRYRKSAVRRNSLMITLSQSGETADTLAGLRLSKELGYLGSLAICNVPGSSLVRESDLALMTNAGTEIGVASTKAFTTQLTVLLMLVAKLSRLKGLDASIEHDIVHGLQALPSRIEQMLSQDKRIEALAEDFSDKHHALFLGRGDQYPIALEGALKLKEISYIHAEAYAAGELKHGPLALIDADMPVIVVAPNNELLEKLKSNIEEVRARGGQLYVFADQDAGFVSSDNMHIIEMPHVEEVIAPIFYTVPLQLLAYHVALIKGTDVDQPRNLAKSVTVE
B1 was tested, and the binding [3] was “no binding”.
